The experiment deals with Clever-1 (human (endogenous in primary macrophages)) (UniProt Q9NY15). Briefly: co-IP.

Sequences of proteins named here, by UniProt entry; tags and fusion partners are left off. Residues count along the entry.
UniProt Q9NY15, residues 26-2570: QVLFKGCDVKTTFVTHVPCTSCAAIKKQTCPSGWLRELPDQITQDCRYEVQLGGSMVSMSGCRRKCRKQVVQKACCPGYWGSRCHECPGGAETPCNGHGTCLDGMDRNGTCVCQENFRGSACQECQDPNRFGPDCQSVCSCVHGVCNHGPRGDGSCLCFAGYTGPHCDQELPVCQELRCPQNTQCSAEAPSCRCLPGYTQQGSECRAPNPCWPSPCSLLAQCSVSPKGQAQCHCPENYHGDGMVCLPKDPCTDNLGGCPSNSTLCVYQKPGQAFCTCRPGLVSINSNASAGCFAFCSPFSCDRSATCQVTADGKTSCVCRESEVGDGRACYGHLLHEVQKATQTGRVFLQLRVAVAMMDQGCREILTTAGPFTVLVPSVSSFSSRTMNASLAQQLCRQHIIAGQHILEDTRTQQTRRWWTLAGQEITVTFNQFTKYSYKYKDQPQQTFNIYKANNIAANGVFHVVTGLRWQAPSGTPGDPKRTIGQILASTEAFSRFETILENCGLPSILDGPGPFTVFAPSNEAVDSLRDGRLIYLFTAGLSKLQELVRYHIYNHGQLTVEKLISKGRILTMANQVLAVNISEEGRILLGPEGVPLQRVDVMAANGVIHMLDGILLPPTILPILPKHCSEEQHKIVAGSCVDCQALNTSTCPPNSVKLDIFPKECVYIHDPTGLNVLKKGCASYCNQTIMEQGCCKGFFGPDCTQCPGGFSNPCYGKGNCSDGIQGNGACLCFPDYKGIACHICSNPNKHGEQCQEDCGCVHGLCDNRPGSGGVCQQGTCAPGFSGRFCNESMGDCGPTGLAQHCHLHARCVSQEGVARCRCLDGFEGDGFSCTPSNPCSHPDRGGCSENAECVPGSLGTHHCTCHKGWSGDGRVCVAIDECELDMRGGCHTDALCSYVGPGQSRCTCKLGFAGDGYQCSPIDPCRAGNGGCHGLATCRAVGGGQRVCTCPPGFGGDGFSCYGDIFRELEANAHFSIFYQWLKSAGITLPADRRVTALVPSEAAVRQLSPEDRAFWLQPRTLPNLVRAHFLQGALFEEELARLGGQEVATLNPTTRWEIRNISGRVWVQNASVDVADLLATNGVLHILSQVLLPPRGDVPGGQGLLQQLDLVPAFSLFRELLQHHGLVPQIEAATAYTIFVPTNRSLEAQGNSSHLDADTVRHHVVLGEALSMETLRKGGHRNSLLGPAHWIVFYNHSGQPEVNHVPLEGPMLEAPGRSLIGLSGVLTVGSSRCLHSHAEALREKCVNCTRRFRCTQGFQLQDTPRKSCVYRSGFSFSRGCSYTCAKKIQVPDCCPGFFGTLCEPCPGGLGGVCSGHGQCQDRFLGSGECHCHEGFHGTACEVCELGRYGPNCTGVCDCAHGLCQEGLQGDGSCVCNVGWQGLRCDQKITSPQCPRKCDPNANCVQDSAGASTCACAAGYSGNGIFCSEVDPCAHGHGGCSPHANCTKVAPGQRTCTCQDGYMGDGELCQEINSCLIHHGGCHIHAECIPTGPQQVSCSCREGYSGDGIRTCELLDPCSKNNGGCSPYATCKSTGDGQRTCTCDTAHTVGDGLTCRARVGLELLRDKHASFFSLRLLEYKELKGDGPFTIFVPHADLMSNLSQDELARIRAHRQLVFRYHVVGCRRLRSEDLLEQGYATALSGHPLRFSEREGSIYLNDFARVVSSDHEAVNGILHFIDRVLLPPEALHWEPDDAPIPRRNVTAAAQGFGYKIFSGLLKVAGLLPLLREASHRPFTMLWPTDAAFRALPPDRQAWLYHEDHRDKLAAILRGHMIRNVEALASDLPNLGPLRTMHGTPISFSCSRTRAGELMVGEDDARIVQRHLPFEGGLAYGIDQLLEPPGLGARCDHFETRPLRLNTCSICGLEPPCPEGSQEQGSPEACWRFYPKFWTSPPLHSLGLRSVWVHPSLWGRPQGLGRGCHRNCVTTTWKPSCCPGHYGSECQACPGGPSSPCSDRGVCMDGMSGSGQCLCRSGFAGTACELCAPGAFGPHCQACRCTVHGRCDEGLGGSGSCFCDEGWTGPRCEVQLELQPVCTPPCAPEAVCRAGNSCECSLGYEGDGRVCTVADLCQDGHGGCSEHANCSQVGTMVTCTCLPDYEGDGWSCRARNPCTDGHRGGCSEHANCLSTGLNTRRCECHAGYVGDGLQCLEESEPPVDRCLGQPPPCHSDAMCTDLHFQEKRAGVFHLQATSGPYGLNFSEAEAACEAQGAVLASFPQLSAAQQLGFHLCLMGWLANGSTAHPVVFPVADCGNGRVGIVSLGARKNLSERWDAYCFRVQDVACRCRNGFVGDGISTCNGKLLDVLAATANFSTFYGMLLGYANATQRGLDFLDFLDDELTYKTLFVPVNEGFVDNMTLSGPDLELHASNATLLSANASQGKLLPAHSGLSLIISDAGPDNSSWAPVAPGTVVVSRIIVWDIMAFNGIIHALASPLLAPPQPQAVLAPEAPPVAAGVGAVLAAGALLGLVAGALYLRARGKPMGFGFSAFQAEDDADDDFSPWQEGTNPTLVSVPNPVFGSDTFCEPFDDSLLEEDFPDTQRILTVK
UniProt Q13488: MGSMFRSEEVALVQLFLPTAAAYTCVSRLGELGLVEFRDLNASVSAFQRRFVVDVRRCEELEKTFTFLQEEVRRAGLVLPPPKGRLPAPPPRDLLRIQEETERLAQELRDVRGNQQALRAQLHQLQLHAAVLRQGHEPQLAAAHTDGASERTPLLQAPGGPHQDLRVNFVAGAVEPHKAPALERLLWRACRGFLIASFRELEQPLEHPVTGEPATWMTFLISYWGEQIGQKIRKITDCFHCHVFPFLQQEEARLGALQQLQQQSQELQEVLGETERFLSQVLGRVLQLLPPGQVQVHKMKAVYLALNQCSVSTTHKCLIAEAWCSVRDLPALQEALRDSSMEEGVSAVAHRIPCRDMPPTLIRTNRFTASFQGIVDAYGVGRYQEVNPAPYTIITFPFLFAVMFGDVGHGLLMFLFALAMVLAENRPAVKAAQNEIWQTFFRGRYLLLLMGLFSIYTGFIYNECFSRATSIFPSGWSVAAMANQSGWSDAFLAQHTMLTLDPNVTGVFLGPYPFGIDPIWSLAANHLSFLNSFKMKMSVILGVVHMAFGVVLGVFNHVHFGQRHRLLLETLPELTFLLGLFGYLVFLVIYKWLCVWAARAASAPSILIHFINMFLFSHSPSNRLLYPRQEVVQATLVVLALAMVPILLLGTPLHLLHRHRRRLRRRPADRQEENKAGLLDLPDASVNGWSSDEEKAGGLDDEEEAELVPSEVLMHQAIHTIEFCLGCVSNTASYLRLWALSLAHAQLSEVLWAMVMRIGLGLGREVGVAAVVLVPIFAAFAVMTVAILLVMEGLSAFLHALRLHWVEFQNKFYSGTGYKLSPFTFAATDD
UniProt Q93050: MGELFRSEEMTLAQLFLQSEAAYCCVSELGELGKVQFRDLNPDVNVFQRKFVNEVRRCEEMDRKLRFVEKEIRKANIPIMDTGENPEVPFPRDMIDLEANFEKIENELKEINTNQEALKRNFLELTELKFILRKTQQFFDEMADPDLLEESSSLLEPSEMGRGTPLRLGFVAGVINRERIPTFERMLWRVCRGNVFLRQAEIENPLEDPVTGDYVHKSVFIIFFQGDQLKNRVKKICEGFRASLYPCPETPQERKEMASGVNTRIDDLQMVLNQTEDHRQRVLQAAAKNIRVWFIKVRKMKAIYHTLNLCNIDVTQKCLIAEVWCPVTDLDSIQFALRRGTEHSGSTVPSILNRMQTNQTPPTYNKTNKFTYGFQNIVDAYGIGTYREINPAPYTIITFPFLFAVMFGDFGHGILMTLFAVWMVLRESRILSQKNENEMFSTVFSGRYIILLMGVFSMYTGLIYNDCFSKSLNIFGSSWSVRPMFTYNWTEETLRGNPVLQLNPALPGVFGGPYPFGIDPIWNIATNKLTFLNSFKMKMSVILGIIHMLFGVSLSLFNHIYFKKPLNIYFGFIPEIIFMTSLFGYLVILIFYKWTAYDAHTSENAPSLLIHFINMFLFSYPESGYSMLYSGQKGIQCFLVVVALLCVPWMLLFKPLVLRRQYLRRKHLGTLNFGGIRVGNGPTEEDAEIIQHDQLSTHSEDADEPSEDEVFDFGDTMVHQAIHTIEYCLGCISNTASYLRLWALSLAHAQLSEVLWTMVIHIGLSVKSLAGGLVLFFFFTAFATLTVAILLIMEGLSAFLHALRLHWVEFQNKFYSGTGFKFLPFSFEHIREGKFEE

Results are given in words; binding and its absence hold for the method and conditions named. In cells and extracts the contact can be indirect. Some entries that bind do so weakly or less than the wild type.

Turning to TCIRG1 (from UniProt Q13488 1-830), the binding entry is reported as “binds”.

In the case of ATP6V0A1 (from UniProt Q93050 1-837), the binding result is reported as “binds”.

Source of the values: article doi:10.1101/2020.11.11.20227777.
